Data reported in publication PMC5313212.
No constants are given. Whether binding was seen depends on the method and setting.

Columns and labels:
[1] = biological target: human KISS1 without the secretion signal peptide (residues 19-138) (human) (UniProt Q15726); assay: SAXS; 10°C, 4.0 and 1.0 g/L in PBS pH 7.0, 1 mM DTT; curves at both concentrations merged; molecular weight calculated with Scåtter; both purified
[2] = biological target: human KISS1 without the secretion signal peptide (residues 19-138) (human) (UniProt Q15726); assay: SEC-MALS; Superdex 200 10/300 GL, 25°C, PBS pH 7.0, 1 mM TCEP, 0.03% NaN3; 100 μL of Kiss1 at 0.8 g/L injected at 0.5 mL/min; both purified

B1: human KISS1 without the secretion signal peptide (residues 19-138) (protein, UniProt Q15726 19-138)
chain: GEPLEKVASVGNSRPTGQQLESLGLLAPGEQSLPCTERKPAATARLSRRGTSLSPPPESSGSPQQPGLSAPHSRQIPAPQGAVLVQREKDLPNYNWNSFGLRFGKREAAPGNHGRSAGRG
[1]
  binding: no binding (tested: 1.0 and 4.0 g/L)
[2]
  binding: no binding (tested: 0.8 g/L)
